We go through six molecules from publication doi:10.1101/2023.08.10.552820.

Protein sequences, listed by entry. Tags and fused reporters are not part of them. Residues count along the entry.
UniProt Q9S9T7, whole entry: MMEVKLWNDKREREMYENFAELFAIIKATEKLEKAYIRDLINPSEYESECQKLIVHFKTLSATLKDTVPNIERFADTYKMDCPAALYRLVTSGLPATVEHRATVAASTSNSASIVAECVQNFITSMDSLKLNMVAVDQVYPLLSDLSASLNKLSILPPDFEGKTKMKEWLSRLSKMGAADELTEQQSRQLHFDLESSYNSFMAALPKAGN
UniProt Q4FE47, whole entry: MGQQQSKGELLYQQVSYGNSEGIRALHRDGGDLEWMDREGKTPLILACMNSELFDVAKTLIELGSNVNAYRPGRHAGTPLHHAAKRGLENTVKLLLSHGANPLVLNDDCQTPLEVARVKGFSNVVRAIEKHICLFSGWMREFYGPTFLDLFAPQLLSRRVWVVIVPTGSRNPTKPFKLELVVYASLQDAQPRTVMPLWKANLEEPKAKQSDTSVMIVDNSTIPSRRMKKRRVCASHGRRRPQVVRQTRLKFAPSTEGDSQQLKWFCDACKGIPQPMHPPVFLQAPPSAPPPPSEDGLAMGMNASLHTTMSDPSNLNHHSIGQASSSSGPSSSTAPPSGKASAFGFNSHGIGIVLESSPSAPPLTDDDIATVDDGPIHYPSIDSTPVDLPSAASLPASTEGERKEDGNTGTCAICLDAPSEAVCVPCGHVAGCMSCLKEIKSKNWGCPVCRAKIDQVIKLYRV
UniProt Q9FPH0, whole entry: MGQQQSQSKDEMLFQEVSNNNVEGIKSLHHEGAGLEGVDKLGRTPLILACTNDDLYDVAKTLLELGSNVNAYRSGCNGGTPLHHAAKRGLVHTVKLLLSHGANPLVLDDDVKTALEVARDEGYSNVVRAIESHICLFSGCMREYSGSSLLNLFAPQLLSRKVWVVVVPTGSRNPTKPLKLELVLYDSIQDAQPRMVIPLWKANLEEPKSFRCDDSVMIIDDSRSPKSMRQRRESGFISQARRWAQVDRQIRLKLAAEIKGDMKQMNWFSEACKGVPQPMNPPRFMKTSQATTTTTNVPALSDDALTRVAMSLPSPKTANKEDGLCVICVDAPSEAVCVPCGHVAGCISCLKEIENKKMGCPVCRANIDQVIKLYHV
UniProt Q9FL28, 24-1173: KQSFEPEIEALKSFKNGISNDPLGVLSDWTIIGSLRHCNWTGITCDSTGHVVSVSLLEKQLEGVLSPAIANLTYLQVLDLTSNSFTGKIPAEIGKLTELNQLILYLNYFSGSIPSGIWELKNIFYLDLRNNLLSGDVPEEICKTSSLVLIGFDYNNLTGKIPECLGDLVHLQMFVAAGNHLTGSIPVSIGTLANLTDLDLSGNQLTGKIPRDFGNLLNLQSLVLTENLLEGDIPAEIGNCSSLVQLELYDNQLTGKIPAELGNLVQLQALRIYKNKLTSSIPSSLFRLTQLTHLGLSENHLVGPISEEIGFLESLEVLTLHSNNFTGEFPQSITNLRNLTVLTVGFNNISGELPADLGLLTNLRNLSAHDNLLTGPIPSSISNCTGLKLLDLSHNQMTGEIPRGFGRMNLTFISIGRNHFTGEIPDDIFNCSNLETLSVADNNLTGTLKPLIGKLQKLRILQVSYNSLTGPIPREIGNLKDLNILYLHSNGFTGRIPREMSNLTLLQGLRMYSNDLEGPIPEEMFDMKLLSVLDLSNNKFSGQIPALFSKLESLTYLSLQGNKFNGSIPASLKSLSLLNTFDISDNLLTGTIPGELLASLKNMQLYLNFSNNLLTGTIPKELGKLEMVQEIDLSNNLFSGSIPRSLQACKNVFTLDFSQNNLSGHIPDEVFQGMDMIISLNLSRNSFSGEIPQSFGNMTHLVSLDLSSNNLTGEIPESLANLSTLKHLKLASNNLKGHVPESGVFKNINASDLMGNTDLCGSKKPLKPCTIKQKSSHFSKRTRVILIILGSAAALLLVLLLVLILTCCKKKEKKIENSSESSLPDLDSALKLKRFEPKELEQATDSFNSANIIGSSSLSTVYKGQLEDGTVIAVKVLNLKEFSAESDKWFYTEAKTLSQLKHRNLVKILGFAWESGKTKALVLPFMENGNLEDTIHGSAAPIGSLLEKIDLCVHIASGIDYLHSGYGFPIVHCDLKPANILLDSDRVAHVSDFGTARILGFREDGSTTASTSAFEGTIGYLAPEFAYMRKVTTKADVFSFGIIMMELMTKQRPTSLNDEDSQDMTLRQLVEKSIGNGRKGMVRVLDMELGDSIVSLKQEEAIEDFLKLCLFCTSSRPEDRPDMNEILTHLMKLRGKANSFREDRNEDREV

No constants are given. Whether binding was seen depends on the method and setting. For part of these data: Binding seen in cells or lysates may run through a third protein. Some entries that bind do so weakly or less than the wild type. For part of these data: Tags and fused reporters may be left off the sequences shown.

Assay [1] addresses VPS28-2-cYFP (Arabidopsis) (UniProt Q9S9T7). Briefly: split reporter.
The target of assay [2] is T1, VPS37-1-cYFP (Arabidopsis) (UniProt Q9SCP9).
T1 sequence: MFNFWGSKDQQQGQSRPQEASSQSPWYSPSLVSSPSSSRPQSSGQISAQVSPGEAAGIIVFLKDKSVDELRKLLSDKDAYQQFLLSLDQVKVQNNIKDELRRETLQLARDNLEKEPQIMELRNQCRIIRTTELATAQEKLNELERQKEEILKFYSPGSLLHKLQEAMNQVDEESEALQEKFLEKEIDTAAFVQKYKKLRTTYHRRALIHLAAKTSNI
Kind of assay: split reporter.

Assay [3] has as its target XBAT35.1-cYFP (Arabidopsis) (UniProt Q4FE47). Briefly: split reporter.
The target of assay [4] is XBAT34-cYFP (Arabidopsis) (UniProt Q9FPH0). Kind of assay: split reporter.
Assay [5] concerns the target UBC13A (AtUBC35), two-hybrid fusion (Arabidopsis) (UniProt Q94A97). Kind of assay: two-hybrid.
Assay [6] addresses T2, UBC13B (AtUBC36), two-hybrid fusion (Arabidopsis) (UniProt Q9FZ48).
T2 sequence: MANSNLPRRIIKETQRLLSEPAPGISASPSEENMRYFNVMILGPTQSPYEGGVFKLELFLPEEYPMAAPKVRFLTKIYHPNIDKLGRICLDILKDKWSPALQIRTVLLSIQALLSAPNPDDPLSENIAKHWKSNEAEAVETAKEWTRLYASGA
Briefly: two-hybrid.

Another assay concerns the target FLS2-nYFP (Arabidopsis) (UniProt Q9FL28). Kind of assay: split reporter.

For the molecule “FLS2-nYFP (from UniProt Q9FL28 24-1173) (receptor)”, the binding result in assay [1] is given as “binds”; in assay [2] it was “binds”; in assay [3], “no binding”; in assay [4], “no binding”.
For “XBAT35.1, two-hybrid fusion (from UniProt Q4FE47 1-462) (enzyme)”, the binding entry in assay [5] and in assay [6] was “binds” each time.
On to “XBAT34, two-hybrid fusion (from UniProt Q9FPH0 1-376) (enzyme)”, for which the binding result in assay [5] and in assay [6] was “binds weakly” in each case.

B1: DRP1A-cYFP (protein, UniProt P42697 1-610)
chain: MENLISLVNKIQRACTALGDHGDSSALPTLWDSLPAIAVVGGQSSGKSSVLESIVGKDFLPRGSGIVTRRPLVLQLQKIDDGTREYAEFLHLPRKKFTDFAAVRKEIQDETDRETGRSKAISSVPIHLSIYSPNVVNLTLIDLPGLTKVAVDGQSDSIVKDIENMVRSYIEKPNCIILAISPANQDLATSDAIKISREVDPSGDRTFGVLTKIDLMDKGTDAVEILEGRSFKLKYPWVGVVNRSQADINKNVDMIAARKREREYFSNTTEYRHLANKMGSEHLAKMLSKHLERVIKSRIPGIQSLINKTVLELETELSRLGKPIAADAGGKLYSIMEICRLFDQIFKEHLDGVRAGGEKVYNVFDNQLPAALKRLQFDKQLAMDNIRKLVTEADGYQPHLIAPEQGYRRLIESSIVSIRGPAEASVDTVHAILKDLVHKSVNETVELKQYPALRVEVTNAAIESLDKMREGSKKATLQLVDMECSYLTVDFFRKLPQDVEKGGNPTHSIFDRYNDSYLRRIGSNVLSYVNMVCAGLRNSIPKSIVYCQVREAKRSLLDHFFAELGTMDMKRLSSLLNEDPAIMERRSAISKRLELYRAAQSEIDAVAWSK
Take B1: the binding entry in the assay with FLS2-nYFP (Arabidopsis) is “binds”.

B2: DRP2B-cYFP (protein, UniProt Q9LQ55 1-920)
chain: MEAIDELSQLSDSMRQAASLLADEDPDETSSSRRPATSLNVVALGNVGAGKSAVLNSLIGHPVLPTGENGATRAPIIIDLSREESLSSKAIILQIDNKNQQVSASALRHSLQDRLSKGASGRGRDEIYLKLRTSTAPPLKLIDLPGLDQRIVDDSMIGEHAQHNDAILLVVVPASQASEISSSRALKIAKEYDPESTRTVGIISKIDQAAENPKSLAAVQALLSNQGPPKTTDIPWVALIGQSVSIASAQSGGSENSLETAWRAESESLKSILTGAPQSKLGRIALVDTLASQIRSRMKLRLPNILTGLQGKSQIVQDELARLGEQLVSSAEGTRAIALELCREFEDKFLLHLAGGEGSGWKVVASFEGNFPNRIKKLPLDRHFDLNNVKRIVLEADGYQPYLISPEKGLRSLIKTVLELAKDPARLCVDEVHRVLVDIVSASANATPGLGRYPPFKREVVAIASAALDGFKNEAKKMVVALVDMERAFVPPQHFIRLVQRRMERQRREEELKGRSSKKGQDAEQSLLNRATSPQPDGPSSTGGSLKSLRDKLMPQDKDKDKEKETPEVSGLKTAGPEGEITAGYLMKKSAKTNGWSRRWFVLNEKTGKLGYTKKQEERNFRGTVTLEECSIEEISDDEGEKSKSSKDKKSNGPDSKGPGLVFKITCRVPYKTVLKAHNALVLKAESMVDKNEWINKLQKVIQARGGQVGSASMRQSLSEGSLDKMVRKPVDPEEELRWMSQEVRGYVEAVLNSLAANVPKAVVLCQVEKSKEDMLNQLYSSISAIGNERIESLIQEDQNVKRRRDRYQKQSSLLSKLTRQLSIHDNRAAAASSWSDNSGTESSPRTNGGSSGEDWMNAFNAAASGPDSLKRYGSGGHSRRYSDPAQNGEDSSGSGGSSRRTTPNRLPPAPPQSGSSYRY
On to B2, for which the binding entry with FLS2-nYFP (Arabidopsis) is “binds”.

B3: BAK1-nYFP (receptor, UniProt Q94F62 26-615)
chain: NAEGDALSALKNSLADPNKVLQSWDATLVTPCTWFHVTCNSDNSVTRVDLGNANLSGQLVMQLGQLPNLQYLELYSNNITGTIPEQLGNLTELVSLDLYLNNLSGPIPSTLGRLKKLRFLRLNNNSLSGEIPRSLTAVLTLQVLDLSNNPLTGDIPVNGSFSLFTPISFANTKLTPLPASPPPPISPTPPSPAGSNRITGAIAGGVAAGAALLFAVPAIALAWWRRKKPQDHFFDVPAEEDPEVHLGQLKRFSLRELQVASDNFSNKNILGRGGFGKVYKGRLADGTLVAVKRLKEERTQGGELQFQTEVEMISMAVHRNLLRLRGFCMTPTERLLVYPYMANGSVASCLRERPESQPPLDWPKRQRIALGSARGLAYLHDHCDPKIIHRDVKAANILLDEEFEAVVGDFGLAKLMDYKDTHVTTAVRGTIGHIAPEYLSTGKSSEKTDVFGYGVMLLELITGQRAFDLARLANDDDVMLLDWVKGLLKEKKLEALVDVDLQGNYKDEEVEQLIQVALLCTQSSPMERPKMSEVVRMLEGDGLAERWEEWQKEEMFRQDFNYPTHHPAVSGWIIGDSTSQIENEYPSGPR
As to B3, the binding entry in assay [3] and in assay [4] was “no binding” each time.
